No constants are given. Whether binding was seen depends on the method and setting. In cells and extracts the contact can be indirect. Here binding means that the protein was enriched with, or labelled near, the bait; the list need not be complete.
T1: 16 E7 19–20 peptide (human papillomavirus type 16)
T1 sequence (peptide, biotin on the N-terminus): LDLQPETTDLYCYEQL

By UniProt entry, the sequences of proteins in these tests, tags left out.
UniProt Q8IY21: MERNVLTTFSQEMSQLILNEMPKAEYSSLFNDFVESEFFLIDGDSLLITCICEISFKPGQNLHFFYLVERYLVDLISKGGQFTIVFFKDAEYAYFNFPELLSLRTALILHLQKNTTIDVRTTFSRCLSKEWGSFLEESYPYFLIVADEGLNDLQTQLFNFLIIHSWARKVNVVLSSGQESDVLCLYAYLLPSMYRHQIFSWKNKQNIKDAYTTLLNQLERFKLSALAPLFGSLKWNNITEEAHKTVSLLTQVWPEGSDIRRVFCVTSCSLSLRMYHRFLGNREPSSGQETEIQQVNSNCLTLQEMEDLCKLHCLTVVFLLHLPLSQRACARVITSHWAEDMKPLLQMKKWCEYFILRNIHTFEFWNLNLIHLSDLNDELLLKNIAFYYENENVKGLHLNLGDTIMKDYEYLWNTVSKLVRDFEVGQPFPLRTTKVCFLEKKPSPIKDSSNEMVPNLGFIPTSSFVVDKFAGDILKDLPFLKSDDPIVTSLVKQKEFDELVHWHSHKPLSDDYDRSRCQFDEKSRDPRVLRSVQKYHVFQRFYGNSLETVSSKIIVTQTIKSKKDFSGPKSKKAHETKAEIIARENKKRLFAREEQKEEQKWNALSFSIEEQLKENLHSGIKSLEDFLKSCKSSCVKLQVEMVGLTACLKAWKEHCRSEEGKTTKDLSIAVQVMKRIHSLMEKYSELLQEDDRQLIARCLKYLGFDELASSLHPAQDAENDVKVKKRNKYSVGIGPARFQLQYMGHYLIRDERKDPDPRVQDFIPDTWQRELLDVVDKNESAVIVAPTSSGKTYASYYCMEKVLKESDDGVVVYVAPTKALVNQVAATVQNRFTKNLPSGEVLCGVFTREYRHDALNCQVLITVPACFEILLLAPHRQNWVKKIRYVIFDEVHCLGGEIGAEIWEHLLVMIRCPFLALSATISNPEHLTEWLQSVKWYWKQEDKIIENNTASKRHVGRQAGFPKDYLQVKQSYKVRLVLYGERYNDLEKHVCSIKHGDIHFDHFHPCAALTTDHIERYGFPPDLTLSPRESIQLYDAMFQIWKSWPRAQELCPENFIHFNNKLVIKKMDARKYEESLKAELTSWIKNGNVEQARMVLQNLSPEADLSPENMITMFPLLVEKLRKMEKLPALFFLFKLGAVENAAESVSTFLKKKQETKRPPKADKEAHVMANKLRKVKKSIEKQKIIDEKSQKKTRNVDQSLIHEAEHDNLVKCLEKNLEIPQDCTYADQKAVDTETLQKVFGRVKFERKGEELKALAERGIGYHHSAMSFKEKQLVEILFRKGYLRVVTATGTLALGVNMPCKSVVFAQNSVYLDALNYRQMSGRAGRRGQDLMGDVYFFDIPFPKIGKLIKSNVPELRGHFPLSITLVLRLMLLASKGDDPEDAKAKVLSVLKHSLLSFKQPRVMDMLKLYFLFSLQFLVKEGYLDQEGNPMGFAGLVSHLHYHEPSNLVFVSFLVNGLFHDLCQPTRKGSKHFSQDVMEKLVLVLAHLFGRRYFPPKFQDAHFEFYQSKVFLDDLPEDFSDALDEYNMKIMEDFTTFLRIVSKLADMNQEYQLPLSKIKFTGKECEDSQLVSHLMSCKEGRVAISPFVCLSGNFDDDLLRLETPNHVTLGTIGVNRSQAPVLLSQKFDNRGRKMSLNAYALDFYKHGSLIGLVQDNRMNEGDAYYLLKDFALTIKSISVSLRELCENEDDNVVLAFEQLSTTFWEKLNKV
UniProt Q13547: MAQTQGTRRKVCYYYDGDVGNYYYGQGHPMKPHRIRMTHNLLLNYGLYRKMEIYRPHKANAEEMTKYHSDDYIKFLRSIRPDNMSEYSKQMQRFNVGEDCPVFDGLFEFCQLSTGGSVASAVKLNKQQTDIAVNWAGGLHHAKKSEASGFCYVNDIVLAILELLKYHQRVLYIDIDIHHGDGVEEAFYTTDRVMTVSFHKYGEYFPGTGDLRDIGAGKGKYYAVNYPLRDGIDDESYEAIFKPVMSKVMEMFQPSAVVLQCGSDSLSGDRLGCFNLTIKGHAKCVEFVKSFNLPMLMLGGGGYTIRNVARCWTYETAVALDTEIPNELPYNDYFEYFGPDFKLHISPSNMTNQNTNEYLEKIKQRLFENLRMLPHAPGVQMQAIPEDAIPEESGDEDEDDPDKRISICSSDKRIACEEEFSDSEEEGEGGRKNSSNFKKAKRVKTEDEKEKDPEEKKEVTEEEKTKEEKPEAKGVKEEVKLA
UniProt Q92878: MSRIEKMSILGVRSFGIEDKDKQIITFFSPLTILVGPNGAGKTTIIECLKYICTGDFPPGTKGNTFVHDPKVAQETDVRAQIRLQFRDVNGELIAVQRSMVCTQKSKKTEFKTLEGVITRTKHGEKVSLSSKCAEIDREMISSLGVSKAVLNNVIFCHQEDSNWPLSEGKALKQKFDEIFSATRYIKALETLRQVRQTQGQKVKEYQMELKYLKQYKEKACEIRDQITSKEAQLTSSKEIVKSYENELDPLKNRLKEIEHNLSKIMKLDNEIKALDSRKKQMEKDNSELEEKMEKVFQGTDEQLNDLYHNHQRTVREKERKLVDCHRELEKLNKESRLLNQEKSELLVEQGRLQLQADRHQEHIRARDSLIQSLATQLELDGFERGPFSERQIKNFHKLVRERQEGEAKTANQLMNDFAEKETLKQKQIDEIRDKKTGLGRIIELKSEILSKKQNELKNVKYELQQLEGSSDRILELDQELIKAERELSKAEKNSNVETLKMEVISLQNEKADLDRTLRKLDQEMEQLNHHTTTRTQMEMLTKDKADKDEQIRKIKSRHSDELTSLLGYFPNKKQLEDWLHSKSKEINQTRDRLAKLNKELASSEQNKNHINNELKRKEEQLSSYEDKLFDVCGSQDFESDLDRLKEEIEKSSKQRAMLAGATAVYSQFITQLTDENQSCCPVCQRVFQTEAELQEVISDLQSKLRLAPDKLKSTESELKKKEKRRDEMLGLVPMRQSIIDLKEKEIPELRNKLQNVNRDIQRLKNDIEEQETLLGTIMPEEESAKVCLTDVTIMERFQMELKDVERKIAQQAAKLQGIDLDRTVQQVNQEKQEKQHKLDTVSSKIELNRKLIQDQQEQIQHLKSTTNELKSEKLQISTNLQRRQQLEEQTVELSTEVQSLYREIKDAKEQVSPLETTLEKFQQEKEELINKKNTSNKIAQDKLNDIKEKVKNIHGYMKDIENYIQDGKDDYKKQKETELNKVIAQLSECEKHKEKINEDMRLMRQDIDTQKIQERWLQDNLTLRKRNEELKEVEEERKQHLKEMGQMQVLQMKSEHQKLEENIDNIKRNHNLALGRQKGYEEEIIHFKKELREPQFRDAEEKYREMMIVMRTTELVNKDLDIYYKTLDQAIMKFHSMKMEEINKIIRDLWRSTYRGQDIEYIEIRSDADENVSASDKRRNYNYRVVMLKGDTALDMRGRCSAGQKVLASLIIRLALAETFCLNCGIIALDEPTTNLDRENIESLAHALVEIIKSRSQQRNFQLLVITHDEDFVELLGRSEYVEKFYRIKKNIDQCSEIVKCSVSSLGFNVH
UniProt Q7Z333: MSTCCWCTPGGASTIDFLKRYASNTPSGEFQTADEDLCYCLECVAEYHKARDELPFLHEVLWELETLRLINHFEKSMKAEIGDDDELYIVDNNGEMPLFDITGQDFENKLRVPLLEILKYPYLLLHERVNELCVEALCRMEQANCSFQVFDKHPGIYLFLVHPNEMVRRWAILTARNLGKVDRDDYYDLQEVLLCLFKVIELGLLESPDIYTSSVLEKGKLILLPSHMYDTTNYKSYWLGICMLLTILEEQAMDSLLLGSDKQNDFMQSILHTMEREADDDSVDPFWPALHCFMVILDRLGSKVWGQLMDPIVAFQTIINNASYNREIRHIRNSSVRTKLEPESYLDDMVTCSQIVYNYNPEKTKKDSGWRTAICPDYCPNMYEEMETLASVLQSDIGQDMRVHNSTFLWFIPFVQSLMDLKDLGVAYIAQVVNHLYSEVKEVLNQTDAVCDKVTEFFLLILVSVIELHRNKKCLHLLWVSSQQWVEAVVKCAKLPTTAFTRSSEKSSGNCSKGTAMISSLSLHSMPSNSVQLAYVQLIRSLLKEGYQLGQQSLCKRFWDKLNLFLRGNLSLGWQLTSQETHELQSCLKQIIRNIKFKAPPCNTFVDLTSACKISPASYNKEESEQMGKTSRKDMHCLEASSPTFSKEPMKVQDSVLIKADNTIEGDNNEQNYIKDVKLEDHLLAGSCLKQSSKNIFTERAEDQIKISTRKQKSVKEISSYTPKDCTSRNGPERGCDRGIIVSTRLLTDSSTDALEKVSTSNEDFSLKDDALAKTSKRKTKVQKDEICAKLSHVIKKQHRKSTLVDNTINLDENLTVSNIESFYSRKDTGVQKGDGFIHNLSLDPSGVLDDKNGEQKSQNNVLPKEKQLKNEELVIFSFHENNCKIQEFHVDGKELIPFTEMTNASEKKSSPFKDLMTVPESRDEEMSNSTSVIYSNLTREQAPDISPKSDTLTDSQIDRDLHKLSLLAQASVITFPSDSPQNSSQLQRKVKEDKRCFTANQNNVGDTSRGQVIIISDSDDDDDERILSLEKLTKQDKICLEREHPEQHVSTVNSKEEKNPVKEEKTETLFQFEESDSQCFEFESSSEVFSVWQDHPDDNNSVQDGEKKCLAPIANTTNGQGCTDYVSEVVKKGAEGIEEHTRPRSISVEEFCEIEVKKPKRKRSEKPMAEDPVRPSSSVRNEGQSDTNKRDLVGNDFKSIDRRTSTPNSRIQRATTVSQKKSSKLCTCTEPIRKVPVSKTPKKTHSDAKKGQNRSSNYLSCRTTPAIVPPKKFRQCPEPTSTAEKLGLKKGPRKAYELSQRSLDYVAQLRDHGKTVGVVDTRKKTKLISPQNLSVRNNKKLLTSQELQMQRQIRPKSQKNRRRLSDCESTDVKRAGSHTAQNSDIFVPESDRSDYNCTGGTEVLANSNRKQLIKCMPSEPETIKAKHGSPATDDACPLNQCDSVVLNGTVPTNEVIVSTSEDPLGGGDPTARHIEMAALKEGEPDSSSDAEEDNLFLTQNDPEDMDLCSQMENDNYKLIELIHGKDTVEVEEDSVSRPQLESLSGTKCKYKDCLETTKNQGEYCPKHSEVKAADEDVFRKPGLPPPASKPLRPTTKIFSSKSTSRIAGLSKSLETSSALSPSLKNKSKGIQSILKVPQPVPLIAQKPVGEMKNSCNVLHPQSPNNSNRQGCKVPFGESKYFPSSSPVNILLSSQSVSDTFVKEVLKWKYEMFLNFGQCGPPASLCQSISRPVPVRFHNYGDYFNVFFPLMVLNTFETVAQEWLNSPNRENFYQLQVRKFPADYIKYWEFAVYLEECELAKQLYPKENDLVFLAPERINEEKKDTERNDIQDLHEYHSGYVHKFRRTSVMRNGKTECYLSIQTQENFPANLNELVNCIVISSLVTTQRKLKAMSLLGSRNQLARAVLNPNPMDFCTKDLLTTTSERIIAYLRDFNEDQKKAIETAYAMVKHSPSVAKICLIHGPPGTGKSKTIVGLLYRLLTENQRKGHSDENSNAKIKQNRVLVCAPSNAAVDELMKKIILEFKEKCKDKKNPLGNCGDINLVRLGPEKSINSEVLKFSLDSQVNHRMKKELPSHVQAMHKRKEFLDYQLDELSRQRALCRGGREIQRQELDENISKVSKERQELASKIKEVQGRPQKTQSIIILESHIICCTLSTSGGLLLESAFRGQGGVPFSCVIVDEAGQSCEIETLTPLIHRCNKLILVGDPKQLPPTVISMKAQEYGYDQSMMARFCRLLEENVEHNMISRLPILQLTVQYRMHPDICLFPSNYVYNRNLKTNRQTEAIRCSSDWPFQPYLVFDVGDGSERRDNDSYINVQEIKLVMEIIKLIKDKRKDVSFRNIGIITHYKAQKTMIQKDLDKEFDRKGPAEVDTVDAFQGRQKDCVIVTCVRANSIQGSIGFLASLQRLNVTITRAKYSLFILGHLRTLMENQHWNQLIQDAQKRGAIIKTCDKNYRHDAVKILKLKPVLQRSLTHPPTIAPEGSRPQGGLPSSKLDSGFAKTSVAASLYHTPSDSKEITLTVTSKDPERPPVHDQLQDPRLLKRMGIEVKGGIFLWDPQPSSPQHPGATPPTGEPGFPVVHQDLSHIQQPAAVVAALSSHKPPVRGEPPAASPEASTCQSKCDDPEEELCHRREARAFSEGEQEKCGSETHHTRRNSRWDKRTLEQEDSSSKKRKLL

T2: 16 E7 19–20 phospho-peptide (human papillomavirus type 16)
T2 sequence (peptide, biotin on the N-terminus; phosphothreonine at 19 and 20): LDLQPETTDLYCYEQL

B1: pRb protein (endogenous, HaCat) (protein, UniProt P06400 1-928)
chain: MPPKTPRKTAATAAAAAAEPPAPPPPPPPEEDPEQDSGPEDLPLVRLEFEETEEPDFTALCQKLKIPDHVRERAWLTWEKVSSVDGVLGGYIQKKKELWGICIFIAAVDLDEMSFTFTELQKNIEISVHKFFNLLKEIDTSTKVDNAMSRLLKKYDVLFALFSKLERTCELIYLTQPSSSISTEINSALVLKVSWITFLLAKGEVLQMEDDLVISFQLMLCVLDYFIKLSPPMLLKEPYKTAVIPINGSPRTPRRGQNRSARIAKQLENDTRIIEVLCKEHECNIDEVKNVYFKNFIPFMNSLGLVTSNGLPEVENLSKRYEEIYLKNKDLDARLFLDHDKTLQTDSIDSFETQRTPRKSNLDEEVNVIPPHTPVRTVMNTIQQLMMILNSASDQPSENLISYFNNCTVNPKESILKRVKDIGYIFKEKFAKAVGQGCVEIGSQRYKLGVRLYYRVMESMLKSEEERLSIQNFSKLLNDNIFHMSLLACALEVVMATYSRSTSQNLDSGTDLSFPWILNVLNLKAFDFYKVIESFIKAEGNLTREMIKHLERCEHRIMESLAWLSDSPLFDLIKQSKDREGPTDHLESACPLNLPLQNNHTAADMYLSPVRSPKKKGSTTRVNSTANAETQATSAFQTQKPLKSTSLSLFYKKVYRLAYLRLNTLCERLLSEHPELEHIIWTLFQHTLQNEYELMRDRHLDQIMMCSMYGICKVKNIDLKFKIIVTAYKDLPHAVQETFKRVLIKEEEYDSIIVFYNSVFMQRLKTNILQYASTRPPTLSPIPHIPRSPYKFPSSPLRIPGGNIYISPLKSPYKISEGLPTPTKMTPRSRILVSIGESFGTSEKFQKINQMVCNSDRVLKRSAEGSNPPKPLKKLRFDIEGSDEADGSKHLPGESKFQQKLAEMTSTRTRMQKQKMNDSMDTSNKEEK

What follows are molecules tested against T1, 16 E7 19–20 peptide (human papillomavirus type 16) (assay: affinity purification with mass spectrometry; biotinylated peptides bound to streptavidin-conjugated beads, incubated with pre-cleared HaCat cell extracts; bound proteins identified by mass spectrometry; only the target purified).

**Q.** With B1 as the molecule, how does the binding read?
**A.** binds

Each molecule was assayed against T2, 16 E7 19–20 phospho-peptide (human papillomavirus type 16) in the same assay as above.

**Q.** For “AP2-μ2 adaptor protein subunit (endogenous, HaCat) (from UniProt Q96CW1 1-435)”, which binding is on record?
**A.** binds

**Q.** For DDX3X (from UniProt O00571 1-662), which binding is on record?
**A.** binds

**Q.** DDX60 (from UniProt Q8IY21 1-1712) was tested. Which binding did it give?
**A.** binds

**Q.** DLG5 (from UniProt Q8TDM6 1-1919) was tested. Which binding did it give?
**A.** binds

**Q.** Which binding does the source give for HDAC1 (from UniProt Q13547 1-482) here?
**A.** binds

**Q.** With NBS1 (from UniProt O60934 1-754) as the molecule, how does the binding read?
**A.** binds

**Q.** “PARD3 (endogenous, HaCat) (from UniProt Q8TEW0 1-1356)” was tested. Which binding did it give?
**A.** binds

**Q.** “PTPN13 (endogenous, HaCat) (from UniProt Q12923 1-2485)” was tested. Which binding did it give?
**A.** binds

**Q.** With RAD50 (from UniProt Q92878 1-1312) as the molecule, how does the binding read?
**A.** binds

**Q.** How did the binding turn out when SCRIB (from UniProt Q14160 1-1655) was run?
**A.** binds

**Q.** With SETX (from UniProt Q7Z333 1-2677) as the molecule, how does the binding read?
**A.** binds

**Q.** Which binding does the source give for B1 here?
**A.** binds

From paper PMC10500460
